This note sets out measurements from PMC10545476.

Protein sequences, listed by entry. Tags and fused reporters are not part of them. Residues count along the entry.
UniProt P46531, residues 19-2555: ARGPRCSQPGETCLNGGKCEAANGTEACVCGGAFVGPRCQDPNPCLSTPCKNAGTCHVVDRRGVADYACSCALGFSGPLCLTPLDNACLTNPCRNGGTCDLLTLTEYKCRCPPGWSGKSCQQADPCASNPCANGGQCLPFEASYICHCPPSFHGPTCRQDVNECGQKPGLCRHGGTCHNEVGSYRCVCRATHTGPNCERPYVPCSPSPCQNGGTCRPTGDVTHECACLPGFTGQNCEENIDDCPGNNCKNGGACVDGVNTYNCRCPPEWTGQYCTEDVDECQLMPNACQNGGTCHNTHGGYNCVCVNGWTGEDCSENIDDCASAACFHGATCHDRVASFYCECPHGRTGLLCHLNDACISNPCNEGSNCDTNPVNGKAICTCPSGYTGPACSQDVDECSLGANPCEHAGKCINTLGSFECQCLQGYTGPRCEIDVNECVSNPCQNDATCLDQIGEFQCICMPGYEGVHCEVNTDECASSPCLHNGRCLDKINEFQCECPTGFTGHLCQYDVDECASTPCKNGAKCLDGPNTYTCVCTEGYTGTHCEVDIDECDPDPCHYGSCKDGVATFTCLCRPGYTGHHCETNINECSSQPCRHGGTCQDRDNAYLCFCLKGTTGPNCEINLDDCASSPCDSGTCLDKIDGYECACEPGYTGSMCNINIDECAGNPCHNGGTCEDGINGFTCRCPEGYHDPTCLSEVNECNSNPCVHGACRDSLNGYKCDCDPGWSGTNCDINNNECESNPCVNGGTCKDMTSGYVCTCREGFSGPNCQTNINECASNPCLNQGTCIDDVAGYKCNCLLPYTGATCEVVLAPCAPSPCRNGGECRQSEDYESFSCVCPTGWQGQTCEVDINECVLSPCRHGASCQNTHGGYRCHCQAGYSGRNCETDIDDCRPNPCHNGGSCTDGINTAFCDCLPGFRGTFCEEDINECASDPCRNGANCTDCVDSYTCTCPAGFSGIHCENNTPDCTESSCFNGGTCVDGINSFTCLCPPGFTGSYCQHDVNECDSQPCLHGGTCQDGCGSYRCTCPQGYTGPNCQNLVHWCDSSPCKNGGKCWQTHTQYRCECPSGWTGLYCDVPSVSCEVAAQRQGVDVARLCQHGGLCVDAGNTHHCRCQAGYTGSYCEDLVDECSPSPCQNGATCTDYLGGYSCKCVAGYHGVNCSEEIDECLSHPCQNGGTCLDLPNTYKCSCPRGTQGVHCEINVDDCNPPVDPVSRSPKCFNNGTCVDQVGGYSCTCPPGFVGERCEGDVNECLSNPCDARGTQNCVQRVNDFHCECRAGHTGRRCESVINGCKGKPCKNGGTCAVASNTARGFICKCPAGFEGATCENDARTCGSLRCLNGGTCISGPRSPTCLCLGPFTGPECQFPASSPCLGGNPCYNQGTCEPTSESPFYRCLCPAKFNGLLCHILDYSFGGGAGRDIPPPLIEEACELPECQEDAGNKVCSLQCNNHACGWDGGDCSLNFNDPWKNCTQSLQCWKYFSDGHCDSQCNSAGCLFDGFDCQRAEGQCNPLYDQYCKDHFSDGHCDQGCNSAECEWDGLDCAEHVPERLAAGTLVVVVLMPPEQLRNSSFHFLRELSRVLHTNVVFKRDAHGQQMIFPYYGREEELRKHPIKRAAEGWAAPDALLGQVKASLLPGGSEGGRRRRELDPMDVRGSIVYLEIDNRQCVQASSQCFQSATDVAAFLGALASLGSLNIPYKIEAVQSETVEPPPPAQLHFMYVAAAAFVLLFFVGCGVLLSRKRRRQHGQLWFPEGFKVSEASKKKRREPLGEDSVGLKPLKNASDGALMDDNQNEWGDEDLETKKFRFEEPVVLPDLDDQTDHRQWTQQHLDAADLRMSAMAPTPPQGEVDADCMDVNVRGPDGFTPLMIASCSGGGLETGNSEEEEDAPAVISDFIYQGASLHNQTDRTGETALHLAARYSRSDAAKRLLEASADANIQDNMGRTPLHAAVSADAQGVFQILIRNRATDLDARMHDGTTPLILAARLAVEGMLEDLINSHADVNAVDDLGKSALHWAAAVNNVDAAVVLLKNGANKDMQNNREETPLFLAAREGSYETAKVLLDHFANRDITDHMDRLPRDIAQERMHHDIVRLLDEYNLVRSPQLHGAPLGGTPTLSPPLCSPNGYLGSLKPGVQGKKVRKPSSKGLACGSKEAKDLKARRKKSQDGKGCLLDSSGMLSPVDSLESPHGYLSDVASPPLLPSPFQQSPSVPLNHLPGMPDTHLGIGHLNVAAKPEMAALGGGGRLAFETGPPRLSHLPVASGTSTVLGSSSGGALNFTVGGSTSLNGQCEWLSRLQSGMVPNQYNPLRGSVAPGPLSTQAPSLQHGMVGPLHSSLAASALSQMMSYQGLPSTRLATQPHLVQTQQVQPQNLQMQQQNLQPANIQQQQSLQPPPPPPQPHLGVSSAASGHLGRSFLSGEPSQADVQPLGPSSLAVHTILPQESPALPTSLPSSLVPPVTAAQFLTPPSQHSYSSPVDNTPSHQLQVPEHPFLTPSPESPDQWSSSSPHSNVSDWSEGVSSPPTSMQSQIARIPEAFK

The experiment deals with NOTCH1 (human (endogenous in hiPSC-derived retinal organoids)) (UniProt P46531). The experiment can be described thus: proximity ligation; Duolink in situ PLA (green) on sections of human retinal organoids; mouse anti-NOTCH1 and mouse anti-CRB1 ECD antibodies conjugated to plus or minus oligonucleotide probes, incubated overnight at 4°C.

No constants are given. Whether binding was seen depends on the method and setting. Binding seen in cells or lysates may run through a third protein. Some entries that bind do so weakly or less than the wild type.

B1: CRB1 (wild-type, in control retinal organoids) (protein, UniProt P82279 26-1406)
chain: FCNKNNTRCLSNSCQNNSTCKDFSKDNDCSCSDTANNLDKDCDNMKDPCFSNPCQGSATCVNTPGERSFLCKCPPGYSGTICETTIGSCGKNSCQHGGICHQDPIYPVCICPAGYAGRFCEIDHDECASSPCQNGAVCQDGIDGYSCFCVPGYQGRHCDLEVDECASDPCKNEATCLNEIGRYTCICPHNYSGVNCELEIDECWSQPCLNGATCQDALGAYFCDCAPGFLGDHCELNTDECASQPCLHGGLCVDGENRYSCNCTGSGFTGTHCETLMPLCWSKPCHNNATCEDSVDNYTCHCWPGYTGAQCEIDLNECNSNPCQSNGECVELSSEKQYGRITGLPSSFSYHEASGYVCICQPGFTGIHCEEDVNECSSNPCQNGGTCENLPGNYTCHCPFDNLSRTFYGGRDCSDILLGCTHQQCLNNGTCIPHFQDGQHGFSCLCPSGYTGSLCEIATTLSFEGDGFLWVKSGSVTTKGSVCNIALRFQTVQPMALLLFRSNRDVFVKLELLSGYIHLSIQVNNQSKVLLFISHNTSDGEWHFVEVIFAEAVTLTLIDDSCKEKCIAKAPTPLESDQSICAFQNSFLGGLPVGMTSNGVALLNFYNMPSTPSFVGCLQDIKIDWNHITLENISSGSSLNVKAGCVRKDWCESQPCQSRGRCINLWLSYQCDCHRPYEGPNCLREYVAGRFGQDDSTGYVIFTLDESYGDTISLSMFVRTLQPSGLLLALENSTYQYIRVWLERGRLAMLTPNSPKLVVKFVLNDGNVHLISLKIKPYKIELYQSSQNLGFISASTWKIEKGDVIYIGGLPDKQETELNGGFFKGCIQDVRLNNQNLEFFPNPTNNASLNPVLVNVTQGCAGDNSCKSNPCHNGGVCHSRWDDFSCSCPALTSGKACEEVQWCGFSPCPHGAQCQPVLQGFECIANAVFNGQSGQILFRSNGNITRELTNITFGFRTRDANVIILHAEKEPEFLNISIQDSRLFFQLQSGNSFYMLSLTSLQSVNDGTWHEVTLSMTDPLSQTSRWQMEVDNETPFVTSTIATGSLNFLKDNTDIYVGDRAIDNIKGLQGCLSTIEIGGIYLSYFENVHGFINKPQEEQFLKISTNSVVTGCLQLNVCNSNPCLHGGNCEDIYSSYHCSCPLGWSGKHCELNIDECFSNPCIHGNCSDRVAAYHCTCEPGYTGVNCEVDIDNCQSHQCANGATCISHTNGYSCLCFGNFTGKFCRQSRLPSTVCGNEKTNLTCYNGGNCTEFQTELKCMCRPGFTGEWCEKDIDECASDPCVNGGLCQDLLNKFQCLCDVAFAGERCEVDLADDLISDIFTTIGSVTVALLLILLLAIVASVVTSNKRATQGTYSPSRQEKEGSRVEMWNLMPPPAMERLI
Consider B1, for which the binding result was “binds”.
